In US20080300314A1, “Cooling Compounds” (Givaudan SA, priority 2003, published 2008):
At least one compound was matched to its structure with a doubt left.

Tested on: mouth
Assay: Application in mouthwash
Type: in vivo, human
Settings: mouthwash with 50 mL/L of a 1% solution in alcohol; 30 mL swished, gargled and spit out

CC1CCC(C(C)C)C(C(=O)Nc2ccc(CC#N)cc2)C1 (centres unmarked) [Example 1, N-(4-cyanomethylphenyl) p-menthanecarboxamide]
Cooling felt in the mouth and lips: intense cooling | Duration of cooling perception: several hours
